Experimental data as given in paper PMC12529298.
Results are given in words; binding and its absence hold for the method and conditions named. In cells and extracts the contact can be indirect. Some entries that bind do so weakly or less than the wild type. For part of these data: Sequences can lack the tags named with a protein. Blank lines part the entries; values can stand above or below the molecule they belong to.

Chains of the proteins cited; added tags and fusions are not shown. Lines headed by an entry give the natural chain unless they say otherwise; changes in a name come on top.
UniProt P60174: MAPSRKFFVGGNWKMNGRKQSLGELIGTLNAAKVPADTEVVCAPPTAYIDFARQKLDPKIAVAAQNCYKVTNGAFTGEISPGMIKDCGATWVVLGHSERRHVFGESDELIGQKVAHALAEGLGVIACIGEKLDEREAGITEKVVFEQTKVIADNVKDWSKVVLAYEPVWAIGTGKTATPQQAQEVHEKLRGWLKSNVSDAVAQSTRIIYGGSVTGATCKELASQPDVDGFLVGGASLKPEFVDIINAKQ
UniProt Q09472: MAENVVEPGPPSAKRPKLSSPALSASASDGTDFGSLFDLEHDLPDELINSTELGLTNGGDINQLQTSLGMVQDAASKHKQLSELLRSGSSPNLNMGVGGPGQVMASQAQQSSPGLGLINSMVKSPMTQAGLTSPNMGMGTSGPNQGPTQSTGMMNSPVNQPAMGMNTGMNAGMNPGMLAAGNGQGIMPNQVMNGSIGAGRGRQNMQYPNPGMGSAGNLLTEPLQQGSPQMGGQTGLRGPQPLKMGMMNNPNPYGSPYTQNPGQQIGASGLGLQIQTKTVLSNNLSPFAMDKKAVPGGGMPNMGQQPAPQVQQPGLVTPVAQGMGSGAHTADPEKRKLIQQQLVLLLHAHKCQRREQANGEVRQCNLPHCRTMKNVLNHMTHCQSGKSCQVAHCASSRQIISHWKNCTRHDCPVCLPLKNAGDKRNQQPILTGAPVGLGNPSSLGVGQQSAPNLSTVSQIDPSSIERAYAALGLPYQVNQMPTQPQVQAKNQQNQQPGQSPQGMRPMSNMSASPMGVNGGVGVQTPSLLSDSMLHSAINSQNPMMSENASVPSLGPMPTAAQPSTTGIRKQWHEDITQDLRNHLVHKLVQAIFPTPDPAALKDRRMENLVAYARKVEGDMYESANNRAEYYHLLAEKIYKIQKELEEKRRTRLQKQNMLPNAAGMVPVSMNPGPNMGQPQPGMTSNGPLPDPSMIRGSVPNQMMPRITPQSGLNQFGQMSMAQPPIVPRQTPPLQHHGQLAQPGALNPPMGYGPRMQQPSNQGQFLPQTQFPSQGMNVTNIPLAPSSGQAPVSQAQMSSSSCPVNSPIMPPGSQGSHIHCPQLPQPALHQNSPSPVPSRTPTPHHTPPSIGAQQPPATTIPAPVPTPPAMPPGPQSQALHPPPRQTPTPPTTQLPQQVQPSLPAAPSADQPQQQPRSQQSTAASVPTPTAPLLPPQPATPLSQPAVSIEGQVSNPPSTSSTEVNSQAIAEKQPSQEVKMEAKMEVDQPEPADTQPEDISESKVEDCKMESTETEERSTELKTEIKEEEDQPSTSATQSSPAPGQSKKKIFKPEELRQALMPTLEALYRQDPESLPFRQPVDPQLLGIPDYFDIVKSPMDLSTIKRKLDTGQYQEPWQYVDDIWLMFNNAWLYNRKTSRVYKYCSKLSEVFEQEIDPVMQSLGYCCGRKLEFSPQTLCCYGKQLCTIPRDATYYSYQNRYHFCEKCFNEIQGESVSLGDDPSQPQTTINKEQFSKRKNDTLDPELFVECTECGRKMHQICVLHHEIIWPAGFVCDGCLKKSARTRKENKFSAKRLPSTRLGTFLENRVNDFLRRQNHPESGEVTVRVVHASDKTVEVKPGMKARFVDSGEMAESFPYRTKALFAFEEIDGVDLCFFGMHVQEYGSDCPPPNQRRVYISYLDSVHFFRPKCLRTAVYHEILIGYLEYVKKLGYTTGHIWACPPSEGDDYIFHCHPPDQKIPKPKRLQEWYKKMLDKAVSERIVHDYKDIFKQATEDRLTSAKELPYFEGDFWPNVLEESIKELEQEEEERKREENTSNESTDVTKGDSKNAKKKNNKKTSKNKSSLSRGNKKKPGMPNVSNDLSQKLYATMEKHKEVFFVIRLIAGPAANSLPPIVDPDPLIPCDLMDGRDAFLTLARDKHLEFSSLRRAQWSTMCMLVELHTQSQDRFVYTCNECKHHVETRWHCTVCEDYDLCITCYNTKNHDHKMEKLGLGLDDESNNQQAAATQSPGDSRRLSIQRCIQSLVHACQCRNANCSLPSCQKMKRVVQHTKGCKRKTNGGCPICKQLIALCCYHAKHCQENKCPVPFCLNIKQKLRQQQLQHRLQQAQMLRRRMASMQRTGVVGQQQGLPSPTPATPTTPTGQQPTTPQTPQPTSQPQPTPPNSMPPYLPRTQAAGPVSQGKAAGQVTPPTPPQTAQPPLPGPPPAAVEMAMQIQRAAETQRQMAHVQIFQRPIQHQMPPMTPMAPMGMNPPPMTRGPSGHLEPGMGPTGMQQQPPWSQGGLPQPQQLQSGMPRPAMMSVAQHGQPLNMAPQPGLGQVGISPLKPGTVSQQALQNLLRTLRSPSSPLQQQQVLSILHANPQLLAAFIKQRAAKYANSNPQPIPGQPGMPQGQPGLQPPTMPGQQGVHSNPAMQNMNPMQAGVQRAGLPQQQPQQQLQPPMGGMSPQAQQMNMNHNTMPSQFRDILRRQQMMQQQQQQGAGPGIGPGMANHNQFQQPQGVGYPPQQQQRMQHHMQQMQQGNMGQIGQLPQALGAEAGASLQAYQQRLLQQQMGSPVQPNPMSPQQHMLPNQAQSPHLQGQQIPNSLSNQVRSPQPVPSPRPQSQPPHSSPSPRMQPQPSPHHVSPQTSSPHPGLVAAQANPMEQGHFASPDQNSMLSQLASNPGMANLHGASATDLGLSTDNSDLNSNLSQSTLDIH

Experiments:
[1] = target: Triosephosphate isomerase 1 (TPI1), endogenous (human (endogenous in MRC-5, WI-38 and 293T)) (UniProt P60174); assay: co-IP; anti-TPI1 immunoprecipitates from 293T whole-cell lysates; cells with or without 5 ng/ml TGF-beta1 for 4 h before harvest; immunoblot for HDAC11 and p300
[2] = target: Triosephosphate isomerase 1 (TPI1), endogenous (human (endogenous in MRC-5, WI-38 and 293T)) (UniProt P60174); assay: co-IP; anti-TPI1 immunoprecipitates from MRC-5 and WI-38 whole-cell lysates, endogenous proteins; cells pretreated with TSA (2 uM) for 1 h; immunoblot for HDAC11 and p300
[3] = target: TPI1 in 293T cells transfected with acetyltransferases (Fig. S3A) (UniProt P60174); assay: co-IP; 293T cells individually transfected with 5 acetyltransferases (PCAF, GCN5, CBP, p300, TIP60alpha), then co-immunoprecipitation; IP buffer 50 mM Tris-HCl pH 7.5, 150 mM NaCl, 10% glycerol, 0.5% NP-40
[4] = target: TPI1, transiently expressed together with the HDAC proteins (Fig. S3B) (UniProt P60174); assay: co-IP; 11 human HDAC proteins each transiently expressed in combination with TPI1; interaction determined by co-immunoprecipitation

Molecule: E1A binding protein P300 (p300), transfected into 293T cells (Fig. S3A) (from UniProt Q09472 1-2414)
binding [3]: binds

B2: Histone deacetylase 11 (HDAC11), endogenous (protein, UniProt Q96DB2 1-347)
chain: MLHTTQLYQHVPETRWPIVYSPRYNITFMGLEKLHPFDAGKWGKVINFLKEEKLLSDSMLVEAREASEEDLLVVHTRRYLNELKWSFAVATITEIPPVIFLPNFLVQRKVLRPLRTQTGGTIMAGKLAVERGWAINVGGGFHHCSSDRGGGFCAYADITLAIKFLFERVEGISRATIIDLDAHQGNGHERDFMDDKRVYIMDVYNRHIYPGDRFAKQAIRRKVELEWGTEDDEYLDKVERNIKKSLQEHLPDVVVYNAGTDILEGDRLGGLSISPAGIVKRDELVFRMVRGRRVPILMVTSGGYQKRTARIIADSILNLFGLGLIGPESPSVSAQNSDTPLLPPAVP
binding [1]: binds
binding [2]: binds

The remaining lines, values ahead:

binding [1]: binds
binding [2]: binds
Molecule: E1A binding protein P300 (p300), endogenous (from UniProt Q09472 1-2414)

binding [4]: binds
B1: Histone deacetylase 11 (HDAC11), transiently expressed together with TPI1 (Fig. S3B) (protein, UniProt Q96DB2 1-347)
chain: B2 chain
